Measured values reported in US8623821B2, “Zymogen activators” (Genentech, Inc., priority 2011, dated 2014).
For part of these data: Part of at least one peptide drawing is inferred or uncertain, most often the ends. At least one structure is not confirmed: it was looked up by name or label, or the drawing left a doubt. Where a SMILES comes first, the peptide text is derived from it. Bridges are numbered along the chain shown (N, C = ends). [ ]: non-standard residue; d: D form. Hyp = O=C(O)[C@@H]1C[C@@H](O)CN1

Sequences of proteins named here, by UniProt entry; tags and fusion partners are left off. Residues count along the entry.
UniProt P14210, 479-728 R494E: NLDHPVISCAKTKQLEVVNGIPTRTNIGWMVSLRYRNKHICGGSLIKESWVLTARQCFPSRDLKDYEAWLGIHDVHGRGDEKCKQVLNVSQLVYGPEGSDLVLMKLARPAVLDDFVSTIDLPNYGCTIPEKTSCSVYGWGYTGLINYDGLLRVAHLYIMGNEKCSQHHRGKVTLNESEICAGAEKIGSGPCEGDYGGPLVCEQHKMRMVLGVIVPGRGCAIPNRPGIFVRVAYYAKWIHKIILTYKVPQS
UniProt P14210, 32-728 R494E: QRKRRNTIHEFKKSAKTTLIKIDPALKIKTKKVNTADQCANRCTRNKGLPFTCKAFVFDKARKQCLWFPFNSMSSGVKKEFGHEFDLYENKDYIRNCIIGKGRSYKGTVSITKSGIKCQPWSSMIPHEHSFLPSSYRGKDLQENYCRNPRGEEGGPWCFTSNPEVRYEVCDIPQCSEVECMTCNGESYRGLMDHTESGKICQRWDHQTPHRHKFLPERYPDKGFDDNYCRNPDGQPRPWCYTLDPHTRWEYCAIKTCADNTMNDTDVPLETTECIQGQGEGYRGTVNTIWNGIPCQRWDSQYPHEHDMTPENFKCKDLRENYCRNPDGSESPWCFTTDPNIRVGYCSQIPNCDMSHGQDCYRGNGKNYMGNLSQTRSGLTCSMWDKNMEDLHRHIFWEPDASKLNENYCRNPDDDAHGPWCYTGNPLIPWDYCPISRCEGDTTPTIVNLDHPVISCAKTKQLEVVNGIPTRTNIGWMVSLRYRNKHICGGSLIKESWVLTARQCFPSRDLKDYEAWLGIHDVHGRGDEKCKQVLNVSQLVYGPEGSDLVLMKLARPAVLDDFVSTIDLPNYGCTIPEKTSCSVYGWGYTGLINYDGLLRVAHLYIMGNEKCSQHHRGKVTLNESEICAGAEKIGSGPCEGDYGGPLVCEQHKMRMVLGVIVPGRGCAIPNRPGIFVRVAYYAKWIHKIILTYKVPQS

What was measured:
[1] = biological target: T1, scHGF β (Homo sapiens, UniProt P14210, R494E); test: scHGF β activation/Met binding assay (biolayer interferometry); details: for Kd: peptide titration with 0.5 μM scHGF β, biotinylated Met ECD on sensor, ±stdev of n=3
T1 construct: the scHGF β-chain (residues Asn^479 to Ser^728) contains the R494E mutation; His-tag (C); made in house; host or cells: insect cells (pAcGP67 vector)
Description: Met binding assays were carried out utilizing the OctetRed™ biolayer interferometry instrument (ForteBio, Inc.) as reported previously (Landgraf, K. E. et al. (2010) J Biol Chem 285: 40362-72). Biotinylated Met ECD (Sema/PSI-AviTag) was captured on the surface of streptavidin optical sensor tips (SA biosensors, ForteBio, Inc.), and transferred into buffer containing 0.5 μM scHGF β-chain variants in the presence of increasing concentration of indicated peptides. Association and dissociation reactions were monitored to ensure reversible binding between scHGF β and Met. Binding was quantified using the steady-state levels of surface response from the association reaction. Equilibrium constants were derived by least squares fitting of the titration data to a single-site binding equation. Errors reported are ±stdev of n=3 independent experiments.
Based on the finding that the consensus ZAPs contain features consistent with binding and inserting into the activation pocket, several related peptides were synthesized and utilized in a previously established scHGF β activation assay to assess their affinities and ability to active Met binding (Landgraf, K. E. et al. (2010) J Biol Chem 285: 40362-72). Since scHGF β can only weakly interact with the Met Sema-PSI domain compared to the active HGF β form, biolayer interferometry was used in the activation assay to measure the ability of a peptide to directly enhance the binding affinity of scHGF β to a streptavidin sensor surface coated with biotinylated Met (Landgraf, K. E. et al. (2010) J Biol Chem 285: 40362-72). Thus, titration of an activator peptide should result in a significant increase in the surface response signal due to enhanced scHGF β binding to Met.

[2] = biological target: scHGF (Homo sapiens, UniProt P14210, R494E); test: BxPC-3 cell survival assay, peptide titrations in the presence of scHGF; format: cell-based; design: Full-length recombinant HGF proteins were expressed in 1-liter fermentation cultures of Chinese hamster ovary (CHO) cells; made in house; host or cells: CHO cells (scHGF); details: BxPC-3 cells
Description: BxPC-3 cells were obtained from ATCC and maintained in cell culture medium (RPMI, 10% FBS (Sigma), 50 U/ml penicillin/50 μg/ml streptomycin, 2 mM glutamine). For the survival assay, cells were plated at 10,000 cells/well in 96 well tissue culture plates (Falcon 353072) in 50 μl assay diluent (RPMI, 0.1% BSA (Sigma) 50 U/ml penicillin/50 μg/ml streptomycin, 2 mM glutamine). Cells were allowed to attach for 1-2 h in a 37° C. CO2 incubator. Human HGF proteins (HGF, scHGF or scHGF plus peptide titrations) were pre-incubated at room temperature in assay diluent. HGF/peptide mixtures were added to cells in microtiter plates in triplicate at 50 μl per well and plates were incubated at 37° C. in a CO2 incubator. Final concentrations of HGF variants were 400 ng/ml and peptide concentrations were titrated accordingly. After 72 h, 25 μl alamar Blue (Serotec, BUF012B) was added to each well and incubate an additional 2 h at 37° C. in a CO2 incubator. Plates were agitated vigorously for 10 min at room temperature, and fluorescence was read at 530-590 nm in a fluorescent plate reader.
Using Bx-PC3 cells, peptide titrations in the presence of scHGF were performed and observed robust activation was seen of scHGF signaling through Met, which reached levels equivalent HGF-induced signaling. […]

SMILES | Kd [1] [µM] | fold improvement in binding affinity relative to IVGG.14 [1] [fold] | fold more potent than previously described peptides derived from the native HGF β N-terminus ([1]; versus Landgraf et al. 2010 peptides) [fold] | EC50 ([2]; serum starvation, 72 h, alamar Blue, read-out: EC50 of activation of scHGF, cell survival) [µM] | activation of scHGF / cell survival, in words ([2]; peptide plus scHGF, listed as ZAP2.3)
CC[C@H](C)[C@H](N)C(=O)N[C@H](C(=O)NCC(=O)NCC(=O)N[C@@H](Cc1ccc(O)cc1)C(=O)N1C[C@H](O)C[C@H]1C(=O)N[C@@H](Cc1c[nH]c2ccccc12)C(=O)N[C@@H](Cc1c[nH]c2ccccc12)C(=O)N[C@@H](CCSC)C(=O)N[C@@H](CC(=O)O)C(=O)N[C@H](C(N)=O)C(C)C)[C@@H](C)CC [IIhyP.14, I I G G Y hyP W W M D V] (H-IIGGY[Hyp]WWMDV-NH2; N-terminus assumed) | 5 ± 1 | 7 | > 400 | – | –
CC[C@H](C)[C@H](N)C(=O)N[C@H](C(=O)N[C@@H](CC(=O)O)C(=O)NCC(=O)N[C@@H](Cc1ccc(O)cc1)C(=O)N1CCC[C@H]1C(=O)N[C@@H](Cc1c[nH]c2ccccc12)C(=O)N[C@@H](Cc1c[nH]c2ccccc12)C(=O)N[C@@H](CCSC)C(=O)N[C@@H](CC(=O)O)C(=O)N[C@H](C(N)=O)C(C)C)C(C)C [IVDG.14, I V D G Y P W W M D V] (H-IVDGYPWWMDV-NH2; N-terminus assumed) | 85 ± 23 | – | – | – | –
CC[C@H](C)[C@H](N)C(=O)N[C@H](C(=O)N[C@H](CC(=O)O)C(=O)NCC(=O)N[C@@H](Cc1ccc(O)cc1)C(=O)N1CCC[C@H]1C(=O)N[C@@H](Cc1c[nH]c2ccccc12)C(=O)N[C@@H](Cc1c[nH]c2ccccc12)C(=O)N[C@@H](CCSC)C(=O)N[C@@H](CC(=O)O)C(=O)N[C@H](C(N)=O)C(C)C)C(C)C [IVdG.14] (H-IV[dD]GYPWWMDV-NH2) | 21 ± 4 | – | – | ~20 | –
CC[C@H](C)[C@H](N)C(=O)N[C@H](C(=O)NCC(=O)NCC(=O)N[C@@H](Cc1ccc(O)cc1)C(=O)N1C[C@H](O)C[C@H]1C(=O)N[C@@H](Cc1c[nH]c2ccccc12)C(=O)N[C@@H](Cc1c[nH]c2ccccc12)C(=O)N[C@@H](CCSC)C(=O)N[C@@H](CC(=O)O)C(=O)N[C@H](C(N)=O)C(C)C)C(C)C [IVhyP.14, I V G G Y hyP W W M D V] (H-IVGGY[Hyp]WWMDV-NH2; N-terminus assumed) | 14 ± 3 | 2 | – | – | –
CC[C@H](C)[C@H](N)C(=O)N[C@H](C(=O)NCC(=O)NCC(=O)N[C@H]1CSSC[C@@H](C(=O)N[C@H](C(N)=O)[C@@H](C)CC)NC(=O)[C@H](CCC(=O)O)NC(=O)[C@H](CCC(=O)O)NC(=O)[C@H](CCCNC(=N)N)NC(=O)[C@H](CC(=O)O)NC(=O)[C@H](CCSC)NC(=O)[C@H](Cc2c[nH]c3ccccc23)NC(=O)[C@H](Cc2ccc(O)cc2)NC(=O)[C@@H]2CCCN2C1=O)[C@@H](C)CC [ZAP.03, I I G G C P Y W M D R E E C I] (H-IIGGCPYWMDREECI-NH2; disulfide 5-14) | – | – | – | – | same extent as wild type two-chain HGF
